These are yes or no findings as the source states them, for the method shown. Binding seen in cells or lysates may run through a third protein. Some entries that bind do so weakly or less than the wild type.
Experiments:
[1] = biological target: HspB1 (Hsp27) (human (endogenous in HeLa)) (UniProt P04792); assay: co-IP; as the 150 mM experiment, but washes of the immunoprecipitated proteins in IPP300 buffer (0.3 M NaCl)
[2] = biological target: HspB1 (Hsp27) (human (endogenous in HeLa)) (UniProt P04792); assay: co-IP; pooled gel filtration fractions (pool I of WT cells, pool II of R120G cells) with anti-HspB1 or anti-HspB5 antibody, 4 h at 4°C, protein G sepharose; washes in IPP150 (20 mM Tris-HCl pH 8, 150 mM NaCl, 0.05% NP-40); immunoblot of total, precipitate and depleted supernatant

Protein sequences, listed by entry. Tags and fused reporters are not part of them.
UniProt P04792: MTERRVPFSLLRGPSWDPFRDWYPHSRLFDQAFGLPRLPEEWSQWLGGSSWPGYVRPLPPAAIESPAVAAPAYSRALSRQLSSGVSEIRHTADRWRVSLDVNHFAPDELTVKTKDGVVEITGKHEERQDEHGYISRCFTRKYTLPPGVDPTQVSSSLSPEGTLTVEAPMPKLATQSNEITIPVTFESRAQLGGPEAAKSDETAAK

binding [1]: binds
binding [2]: binds
B1: R120G mutant HspB5 (αB-crystallin) (protein, UniProt P02511 1-175)
chain: MDIAIHHPWIRRPFFPFHSPSRLFDQFFGEHLLESDLFPTSTSLSPFYLRPPSFLRAPSWFDTGLSEMRLEKDRFSVNLDVKHFSPEELKVKVLGDVIEVHGKHEERQDEHGFISREFHGKYRIPADVDPLTITSSLSSDGVLTVNGPRKQVSGPERTIPITREEKPAVTAAPKK
